Assay [1] has as its target sirtuin SIRT5 (mouse (endogenous in J774A.1)) (UniProt Q8K2C6). The assay can be described thus: co-IP; Dynabeads protein A/G with 10 ug anti-SIRT5 or anti-PDHA1 antibody; 250 ug cytoplasmic proteins of control and SIRT5-OE J774A.1 cells, overnight at 4 C; acid elution; blots with anti-PDHA1 and anti-SIRT5.
Assay [2] addresses mouse SIRT5, lentiviral overexpression (SIRT5-OE) (mouse) (UniProt Q8K2C6). Described as above.
For another assay, the target named is pBIFC-VC155-SIRT5 (UniProt Q8K2C6). The assay can be described thus: split reporter; BiFC: pBIFC-VN173-PDHA1 and pBIFC-VC155-SIRT5 transfected alone or together into 293 T cells, 48 h; confocal fluorescence images.

Amino acid sequences for entries named in this document (tags omitted). A change or cut given only in a name is not applied to a line headed by its entry. Residues count along the entry.
UniProt Q8K2C6, residues 37-310: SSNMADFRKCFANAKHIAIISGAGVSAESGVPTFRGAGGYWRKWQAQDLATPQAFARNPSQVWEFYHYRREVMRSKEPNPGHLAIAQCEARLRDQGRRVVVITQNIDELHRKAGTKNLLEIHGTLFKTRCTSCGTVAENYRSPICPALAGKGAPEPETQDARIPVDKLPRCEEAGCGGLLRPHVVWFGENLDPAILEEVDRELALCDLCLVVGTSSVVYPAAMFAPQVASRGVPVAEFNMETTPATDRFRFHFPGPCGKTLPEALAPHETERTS

The values below come from paper PMC9801296.

These are yes or no findings as the source states them, for the method shown. In cells and extracts the contact can be indirect. Some binding calls cover weakened binding; strength is not graded here.

B1: PDH E1 component subunit alpha (PDHA1) (protein, UniProt P35486 30-390)
chain: FANDATFEIKKCDLHRLEEGPPVTTVLTREDGLKYYRMMQTVRRMELKADQLYKQKIIRGFCHLCDGQEACCVGLEAGINPTDHLITAYRAHGFTFTRGLPVRAILAELTGRRGGCAKGKGGSMHMYAKNFYGGNGIVGAQVPLGAGIALACKYNGKDEVCLTLYGDGAANQGQIFEAYNMAALWKLPCIFICENNRYGMGTSVERAAASTDYYKRGDFIPGLRVDGMDILCVREATKFAAAYCRSGKGPILMELQTYRYHGHSMSDPGVSYRTREEIQEVRSKSDPIMLLKDRMVNSNLASVEELKEIDVEVRKEIEDAAQFATADPEPPLEELGYHIYSSDPPFEVRGANQWIKFKSVS
Regarding B1, the binding entry in assay [1] and in assay [2] was “binds” in each case.

B2: pBIFC-VN173-PDHA1 (protein, UniProt P35486 30-390)
chain: FANDATFEIKKCDLHRLEEGPPVTTVLTREDGLKYYRMMQTVRRMELKADQLYKQKIIRGFCHLCDGQEACCVGLEAGINPTDHLITAYRAHGFTFTRGLPVRAILAELTGRRGGCAKGKGGSMHMYAKNFYGGNGIVGAQVPLGAGIALACKYNGKDEVCLTLYGDGAANQGQIFEAYNMAALWKLPCIFICENNRYGMGTSVERAAASTDYYKRGDFIPGLRVDGMDILCVREATKFAAAYCRSGKGPILMELQTYRYHGHSMSDPGVSYRTREEIQEVRSKSDPIMLLKDRMVNSNLASVEELKEIDVEVRKEIEDAAQFATADPEPPLEELGYHIYSSDPPFEVRGANQWIKFKSVS
For B2, the binding result with pBIFC-VC155-SIRT5 is “binds”.
